# These are yes or no findings as the source states them, for the method shown. In cells and extracts the contact can be indirect. Some results given as binding are weak or reduced against the parent protein; the word gives no strength. For some assays here: Tags and fused reporters may be left off the sequences shown.
# Sequences of proteins named here, by UniProt entry; tags and fusion partners are left off.
# UniProt Q05397: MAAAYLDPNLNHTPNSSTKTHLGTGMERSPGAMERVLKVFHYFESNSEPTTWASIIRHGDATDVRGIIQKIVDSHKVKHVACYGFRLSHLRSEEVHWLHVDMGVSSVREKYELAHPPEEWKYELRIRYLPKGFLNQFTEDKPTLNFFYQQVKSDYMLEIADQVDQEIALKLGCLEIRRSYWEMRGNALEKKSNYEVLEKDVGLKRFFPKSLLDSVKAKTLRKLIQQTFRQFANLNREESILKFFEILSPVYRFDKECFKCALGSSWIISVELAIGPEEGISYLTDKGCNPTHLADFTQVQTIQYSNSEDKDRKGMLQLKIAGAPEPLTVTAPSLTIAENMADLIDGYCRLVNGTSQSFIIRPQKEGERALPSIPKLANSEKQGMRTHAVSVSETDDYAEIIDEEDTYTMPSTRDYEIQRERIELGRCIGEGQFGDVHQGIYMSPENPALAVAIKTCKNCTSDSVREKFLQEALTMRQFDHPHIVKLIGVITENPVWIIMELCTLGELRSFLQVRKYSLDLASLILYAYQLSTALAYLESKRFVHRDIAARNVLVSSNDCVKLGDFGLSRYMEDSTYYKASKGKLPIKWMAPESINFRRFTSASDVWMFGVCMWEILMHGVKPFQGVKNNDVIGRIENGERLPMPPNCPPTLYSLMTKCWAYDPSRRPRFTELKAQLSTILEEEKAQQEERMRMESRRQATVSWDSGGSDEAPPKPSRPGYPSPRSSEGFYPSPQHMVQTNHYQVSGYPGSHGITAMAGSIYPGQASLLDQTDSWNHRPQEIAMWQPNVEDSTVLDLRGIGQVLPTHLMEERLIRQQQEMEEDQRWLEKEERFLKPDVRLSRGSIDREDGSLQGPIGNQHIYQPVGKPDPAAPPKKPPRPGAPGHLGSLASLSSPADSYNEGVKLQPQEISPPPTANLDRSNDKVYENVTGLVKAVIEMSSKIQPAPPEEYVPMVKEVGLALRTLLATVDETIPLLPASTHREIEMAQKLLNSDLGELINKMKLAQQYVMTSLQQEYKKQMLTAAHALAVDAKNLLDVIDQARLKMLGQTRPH
# T1: GST-OmpA (E. coli) (UniProt P0A910)
# T1 sequence: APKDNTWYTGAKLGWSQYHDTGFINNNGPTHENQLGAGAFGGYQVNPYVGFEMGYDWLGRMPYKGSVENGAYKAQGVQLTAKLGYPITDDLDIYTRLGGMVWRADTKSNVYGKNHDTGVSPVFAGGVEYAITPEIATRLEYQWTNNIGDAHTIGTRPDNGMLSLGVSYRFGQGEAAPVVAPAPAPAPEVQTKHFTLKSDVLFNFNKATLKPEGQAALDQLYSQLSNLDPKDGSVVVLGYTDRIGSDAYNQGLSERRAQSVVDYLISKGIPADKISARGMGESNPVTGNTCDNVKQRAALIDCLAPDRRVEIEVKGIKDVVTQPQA
# B1: endogenous Caspr1 in HBMECs (receptor, UniProt P78357 20-1384)
# chain: WGYYGCDEELVGPLYARSLGASSYYSLLTAPRFARLHGISGWSPRIGDPNPWLQIDLMKKHRIRAVATQGSFNSWDWVTRYMLLYGDRVDSWTPFYQRGHNSTFFGNVNESAVVRHDLHFHFTARYIRIVPLAWNPRGKIGLRLGLYGCPYKADILYFDGDDAISYRFPRGVSRSLWDVFAFSFKTEEKDGLLLHAEGAQGDYVTLELEGAHLLLHMSLGSSPIQPRPGHTTVSAGGVLNDQHWHYVRVDRFGRDVNFTLDGYVQRFILNGDFERLNLDTEMFIGGLVGAARKNLAYRHNFRGCIENVIFNRVNIADLAVRRHSRITFEGKVAFRCLDPVPHPINFGGPHNFVQVPGFPRRGRLAVSFRFRTWDLTGLLLFSRLGDGLGHVELTLSEGQVNVSIAQSGRKKLQFAAGYRLNDGFWHEVNFVAQENHAVISIDDVEGAEVRVSYPLLIRTGTSYFFGGCPKPASRWDCHSNQTAFHGCMELLKVDGQLVNLTLVEGRRLGFYAEVLFDTCGITDRCSPNMCEHDGRCYQSWDDFICYCELTGYKGETCHTPLYKESCEAYRLSGKTSGNFTIDPDGSGPLKPFVVYCDIRENRAWTVVRHDRLWTTRVTGSSMERPFLGAIQYWNASWEEVSALANASQHCEQWIEFSCYNSRLLNTAGGYPYSFWIGRNEEQHFYWGGSQPGIQRCACGLDRSCVDPALYCNCDADQPQWRTDKGLLTFVDHLPVTQVVIGDTNRSTSEAQFFLRPLRCYGDRNSWNTISFHTGAALRFPPIRANHSLDVSFYFRTSAPSGVFLENMGGPYCQWRRPYVRVELNTSRDVVFAFDVGNGDENLTVHSDDFEFNDDEWHLVRAEINVKQARLRVDHRPWVLRPMPLQTYIWMEYDQPLYVGSAELKRRPFVGCLRAMRLNGVTLNLEGRANASEGTSPNCTGHCAHPRLPCFHGGRCVERYSYYTCDCDLTAFDGPYCNHDIGGFFEPGTWMRYNLQSALRSAAREFSHMLSRPVPGYEPGYIPGYDTPGYVPGYHGPGYRLPDYPRPGRPVPGYRGPVYNVTGEEVSFSFSTSSAPAVLLYVSSFVRDYMAVLIKDDGTLQLRYQLGTSPYVYQLTTRPVTDGQPHSINITRVYRNLFIQVDYFPLTEQKFSLLVDSQLDSPKALYLGRVMETGVIDPEIQRYNTPGFSGCLSGVRFNNVAPLKTHFRTPRPMTAELAEALRVQGELSESNCGAMPRLVSEVPPELDPWYLPPDFPYYHDEGWVAILLGFLVAFLLLGLVGMLVLFYLQNHRYKGSYHTNEPKAAHEYHPGSKPPLPTSGPAQVPTPTAAPNQAPASAPAPAPTPAPAPGPRDQNLPQILEESRSE
# Assays:
# [1] = biological target: focal adhesion kinase (FAK), endogenous in HBMECs (human (endogenous in HBMECs)) (UniProt Q05397); assay: co-IP
# GST-OmpA (E. coli) = biological target: T1, GST-OmpA (E. coli); assay: pull-down; GST fusion proteins prebound to Glutathione Sepharose 4B, incubated overnight at 4 °C with HBMECs lysate; binding buffer 20 mM Tris, 50 mM NaCl, 10% glycerol, 1% Nonidet P-40; blot with Caspr1 antibody; only the target purified
binder,measurement,setting,value
B1,binding,[1],binds
same,binding,GST-OmpA (E. coli),no binding
